Values from PubChem BioAssay AID1224828 (NIAID, 2016)
Shown is an unselected part of about 17,000 reagents. 762 of all reagents (4.5%) count as active. 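Active calls include both raised and lowered p65 entry, mostly lowered; wells with fewer than 50 cells lack a z-score.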 The raw values are shown without normalisation.

Assay: 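Regulators linking TLR4 signalling to p65 nuclear translocation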 (primary screen)
Cells: mouse RAW264.7 G9 macrophage reporter cells (GFP-p65, Tnf promoter-mCherry)
Reagent: siRNA pool against mouse genes, 100 nM
Time to read-out: 2 days siRNA transfection, then 40 min LPS before fixation
Treatment: LPS (Salmonella minnesota R595) at 10 ng/ml
Measured: 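Imaged p65 nuclear translocation ratio, normalised to the plate median, converted to robust z-scores and averaged across two replicates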
Direction: p65 translocation robust z-score: higher = more nuclear NF-kappaB p65 after LPS than the plate median; nuclear/cytoplasmic p65 ratio: higher = more nuclear NF-kappaB p65
Rule for the call: 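Active if robust z is above 3.3 (negative regulators) or below -1.56, the Tlr4 control median (positive regulators); activity score 50 or more; control wells not called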
Calls: active = hit (p65 shift raised or lowered); inactive = no clear change

no.	Target gene	p65 translocation robust z-score	nuclear/cytoplasmic p65 ratio, rep 1	nuclear/cytoplasmic p65 ratio, rep 2	low cell count flag	activity call
1	Tab2	-0.95	1.32	1.22	enough cells to score	inactive
2	V1rd18		1.16	1.34	fewer than 50 cells per well; well left out of scoring	inactive
3	Or51b6b		1.43	1.29	fewer than 50 cells per well; well left out of scoring	inactive
4	Ifnl3		1.59	1.16	fewer than 50 cells per well; well left out of scoring	inactive
5	Osbpl2		1.31	1.13	fewer than 50 cells per well; well left out of scoring	inactive
6	Retn	0.72	1.45	1.36	enough cells to score	inactive
7	Dap3	0.02	1.46	1.38	enough cells to score	inactive
8	Gja5	-0.76	1.38	1.23	enough cells to score	inactive
9	Bnip5	1.26	1.45	1.42	enough cells to score	inactive
10	Zfp101	-0.02	1.37	1.25	enough cells to score	inactive
11	Rbpms2		1.51	1.38	fewer than 50 cells per well; well left out of scoring	inactive
12	4931403M11Rik		1.4	1.45	fewer than 50 cells per well; well left out of scoring	inactive
13	Pcx	-1.21	1.32	1.22	enough cells to score	inactive
14	Hnf4a	1.03	1.65	1.44	enough cells to score	inactive
15	Srrm1	1.95	1.66	1.46	enough cells to score	inactive
16	Mapk4	0.46	1.5	1.43	enough cells to score	inactive
17	Psmc3ip		0.938	1.02	fewer than 50 cells per well; well left out of scoring	inactive
18	Map3k10	1.16	1.6	1.52	enough cells to score	inactive
19	Ubap1	-0.32	1.51	1.42	enough cells to score	inactive

In a second layout: results already given
Bnip5 — p65 translocation robust z-score = 1.26; nuclear/cytoplasmic p65 ratio, rep 1 = 1.45; nuclear/cytoplasmic p65 ratio, rep 2 = 1.42; low cell count flag = enough cells to score; activity call = inactive
Zfp101 — p65 translocation robust z-score = -0.02; nuclear/cytoplasmic p65 ratio, rep 1 = 1.37; nuclear/cytoplasmic p65 ratio, rep 2 = 1.25; low cell count flag = enough cells to score; activity call = inactive
Rbpms2 — nuclear/cytoplasmic p65 ratio, rep 1 = 1.51; nuclear/cytoplasmic p65 ratio, rep 2 = 1.38; low cell count flag = fewer than 50 cells per well; well left out of scoring; activity call = inactive
4931403M11Rik — nuclear/cytoplasmic p65 ratio, rep 1 = 1.4; nuclear/cytoplasmic p65 ratio, rep 2 = 1.45; low cell count flag = fewer than 50 cells per well; well left out of scoring; activity call = inactive
Pcx — p65 translocation robust z-score = -1.21; nuclear/cytoplasmic p65 ratio, rep 1 = 1.32; nuclear/cytoplasmic p65 ratio, rep 2 = 1.22; low cell count flag = enough cells to score; activity call = inactive
Hnf4a — p65 translocation robust z-score = 1.03; nuclear/cytoplasmic p65 ratio, rep 1 = 1.65; nuclear/cytoplasmic p65 ratio, rep 2 = 1.44; low cell count flag = enough cells to score; activity call = inactive

The listing continues.
no.	Target gene	p65 translocation robust z-score	nuclear/cytoplasmic p65 ratio, rep 1	nuclear/cytoplasmic p65 ratio, rep 2	low cell count flag	activity call
20	Blzf1	0.75	1.86	1.6	enough cells to score	inactive
21	Rpp21	0.68	1.5	1.31	enough cells to score	inactive
22	Or12j3	1.82	1.69	1.34	enough cells to score	inactive
23	Zbtb43	1.78	1.65	1.43	enough cells to score	inactive
24	Mep1b	0.83	1.52	1.48	enough cells to score	inactive
25	Myo15a	-0.72	1.3	1.29	enough cells to score	inactive
26	Itga2	-0.12	1.51	1.32	enough cells to score	inactive
27	Sod3	1.67	1.64	1.95	enough cells to score	inactive
28	Nts	-0.89	1.34	1.29	enough cells to score	inactive
29	Pdgfb		1.12	1.18	fewer than 50 cells per well; well left out of scoring	inactive
30	Dcph1		1.26	1.58	fewer than 50 cells per well; well left out of scoring	inactive
31	Nudt5	-1	1.5	1.43	enough cells to score	inactive
32	Bricd5	0.45	1.55	1.54	enough cells to score	inactive
33	Trim30b	0.55	1.45	1.6	enough cells to score	inactive
34	Ms4a3	-0.22	1.85	1.47	enough cells to score	inactive
35	Muc20	0.86	1.86	1.77	enough cells to score	inactive
36	Strn3	-0.9	1.31	1.12	enough cells to score	inactive
37	Prorsd1		1.11	1.1	fewer than 50 cells per well; well left out of scoring	inactive
38	Zfp748		1.07	1.47	fewer than 50 cells per well; well left out of scoring	inactive
39	Tas2r106		1.05	1.11	fewer than 50 cells per well; well left out of scoring	inactive
40	Pcdhgb2	-0.57	1.36	1.19	enough cells to score	inactive
